# In all, about 1,600 compounds were measured (“plate-normalized OD600 growth (mean of duplicates)”: median about 0.31, lowest 2% from about 0.23 on). The list shows a part of the results.
# Tested on: Escherichia coli BW25113
# Assay: plate-normalized OD600 growth (mean of duplicates) (OD600 (normalized)); higher = more growth (less inhibition)
# Settings: 10 µM
# Experimental: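 E. coli BW25113 in LB (100 µl, 96-well, no shaking) was exposed to 10 µM of each compound (here the ChemBridge subset of a ~30,000-member library) and grown at 37°C for 24 h or 15°C for 48 h, in duplicate. Growth was read as OD600 and the duplicate ODs were normalized across screening plates to correct plate-to-plate variation.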
SMILES,"plate-normalized OD600 growth (temperature: 15°C, 48 h)","plate-normalized OD600 growth (temperature: 37°C, 24 h)"
O=c1c2c3c(sc2nc2n1CCCCC2)CCCCC3,0.265,0.618
COc1ccc2c(c1OC)C(=O)N(c1ccc(I)cc1)C2,0.266,0.632
COc1ccc(NC(=O)CSc2nnc(N)s2)cc1,0.258,0.607
COc1ccc(-c2csc(C)n2)cc1[N+](=O)[O-],0.231,0.615
CCc1cc2c(N3CCCCCC3)ncnc2s1,0.247,0.637
CCC(=O)N1CCN(c2cc(N3CCCC3)c(F)cc2[N+](=O)[O-])CC1,0.268,0.65
Oc1ccccc1CN1CCOCC1,0.247,0.662
CCOc1ccc(-c2ncnn2-c2ccc([N+](=O)[O-])cc2)cc1,0.222,0.625
CCN(CC)C(=O)C1CCCN(Cc2sccc2C)C1 (centres undefined),0.257,0.636
Cn1c(NCc2ccccc2)cc(=O)n(C)c1=O,0.258,0.619
CC1(C)CC1C(=O)Nc1ccc([N+](=O)[O-])cc1Br (centres undefined),0.29,0.615
CN1C2=NCCCN2c2ccccc21,0.238,0.612
Fc1ccc(CN2CCN(c3ccccn3)CC2)cc1Br,0.237,0.585
CCN(c1ccccc1)S(=O)(=O)c1ccc(NC(C)=O)cc1,0.265,0.628
O=S(=O)(Cc1ccccc1)NCc1cccnc1,0.24,0.619
COc1ccc(-n2c(C)c([N+](=O)[O-])c3ccc(O)c(CN4CCCCC4)c32)cc1,0.238,0.647
COc1ccccc1/C=C/CN1CCN(c2ccccn2)CC1,0.275,0.655
O=C(Nc1cccc([N+](=O)[O-])c1)c1cc(S(=O)(=O)Nc2ccccc2)ccc1Cl,0.256,0.621
O=C(NC1CCCCCC1)c1ccc([N+](=O)[O-])cc1,0.212,0.629
c1cc(CNc2ccc3c(c2)CCC3)ccn1,0.252,0.642
O=C(Nc1ccc(Oc2ccc(NC(=O)c3cccnc3)cc2)cc1)c1cccnc1,0.27,0.629
CC(=O)NC1CCCc2c1[nH]c1ccc(C)cc21 (centres undefined),0.238,0.622

SMILES,"plate-normalized OD600 growth (temperature: 15°C, 48 h)","plate-normalized OD600 growth (temperature: 37°C, 24 h)"
CC(=O)Nc1ccc(-c2nc3ccc(NC(C)=O)cc3[nH]2)cc1,0.243,0.616
CN1CCN(c2ncnc3sc4c(c23)CCCC4)CC1,0.253,0.635
CC(CCN1CCCN(C)CC1)c1ccccc1 (centres undefined),0.254,0.614
CCOc1c(/C=C(\C#N)c2nc3ccccc3[nH]2)cccc1OC,0.234,0.608
O=[N+]([O-])c1ccc(N2CCN(CC(O)COc3ccccc3)CC2)cc1 (centres undefined),0.237,0.623
N#CSCCCOc1ccc(Cl)cc1,0.241,0.613
CCCCc1c(C(=O)O)cc(C)cc1C(=O)O,0.239,0.631
C(=C\c1ccccc1)/CN1CCN(C2CCc3ccccc3C2)CC1 (centres undefined),0.257,0.605
CS(=O)(=O)N1CCN(C/C=C/c2ccccc2)CC1,0.237,0.61
NNC(=O)c1cc(-c2ccc([N+](=O)[O-])cc2)nc2ccccc12,0.251,0.647
O=[N+]([O-])c1ccccc1/C=C/CN1CCCCC1CO (centres undefined),0.264,0.63
Cc1ccc2c(c1)c1c(n2C)C(C(N)=O)CCC1 (centres undefined),0.256,0.619
O=C(c1ccc(F)cc1)N(Cc1ccccc1)Cc1ccccc1,0.268,0.627
C#CCN1C(=O)C(O)(CC(=O)c2ccc3c(c2)CCCC3)c2ccccc21 (centres undefined),0.252,0.599
N#C/C(=C/c1ccccc1Cl)c1nc(-c2ccccc2)cs1,0.247,0.607
Cn1cccc1C1Nc2ccccc2NC2=C1C(=O)CC(C)(C)C2 (centres undefined),0.222,0.609
CN1CCN(C/C=C/c2ccc(N(C)C)cc2)CC1,0.265,0.658
CN(Cc1ccccc1)C1CC(=O)N(c2ccc(C(=O)O)cc2)C1=O (centres undefined),0.246,0.621
Cc1ccc(N(CC(=O)NC(C)C)S(=O)(=O)c2ccccc2)cc1,0.242,0.63
CN1CCc2oc3ccc(N)cc3c2C1,0.246,0.615
Cc1ccc(NS(=O)(=O)c2ccc(F)cc2)cc1C,0.25,0.619
CC(=O)NC(Cc1ccccc1)Cc1ccccc1,0.248,0.608

# 3 compounds already listed, sorted by molecular weight, descending.
SMILES,"plate-normalized OD600 growth (temperature: 15°C, 48 h)","plate-normalized OD600 growth (temperature: 37°C, 24 h)"
O=[N+]([O-])c1ccc(N2CCN(CC(O)COc3ccccc3)CC2)cc1 (centres undefined),0.237,0.623
CCOc1c(/C=C(\C#N)c2nc3ccccc3[nH]2)cccc1OC,0.234,0.608
CC(=O)NC(Cc1ccccc1)Cc1ccccc1,0.248,0.608

# Remaining list, next part:

SMILES,"plate-normalized OD600 growth (temperature: 15°C, 48 h)","plate-normalized OD600 growth (temperature: 37°C, 24 h)"
CN(C)c1ccc2c(c1)OC(N)=C(C#N)C2c1cc(Br)cs1 (centres undefined),0.26,0.617
N#Cc1ccc(Oc2ccc(C#N)cc2)cc1,0.258,0.641
CN1CCN(C2CC(=O)N(c3cc(Cl)cc(Cl)c3)C2=O)CC1 (centres undefined),0.266,0.656
NNC(=O)C(NC(=O)c1ccccc1)c1n[nH]c(=O)c2ccccc12 (centres undefined),0.261,0.636
Cc1ccccc1NC(=O)c1cccc(S(=O)(=O)Nc2cccc([N+](=O)[O-])c2)c1,0.256,0.626
CC(=O)c1c(C)oc2ccc(O)c(CN3CCOCC3)c12,0.255,0.616
O=C(O)c1ccc(S(=O)(=O)N2CCOCC2)cc1,0.24,0.63
Cc1ccnc(NS(=O)(=O)c2ccc(C(C)(C)C)cc2)c1,0.259,0.615
O=C(Nc1ccc(Cl)cc1)C(O)(c1ccccc1)c1ccccc1,0.246,0.621
CCOc1cc(C)nn1-c1ccccc1,0.253,0.612
Oc1ccccc1-c1cc(-c2ccccc2)n[nH]1,0.27,0.643
Cc1ccc(C)c(S(=O)(=O)Nc2ccccc2Cl)c1,0.251,0.6
CN(C)c1ccc(/C=C/c2ccnc3ccccc23)cc1,0.26,0.627
Cc1ccc2[nH]c3c(c2c1)CCCC3O (centres undefined),0.246,0.625
CC(CN1CCCC(C(N)=O)C1)c1ccccc1 (centres undefined),0.261,0.623
O=S(=O)(Nc1ccc2c(c1)OCO2)c1ccc(Cl)cc1,0.24,0.607
C#CCSc1nc2c(cc1C#N)CCCC2,0.237,0.61
COc1cc(NC(=O)c2ccc([N+](=O)[O-])cc2)cc(OC)c1,0.267,0.674
NC(=O)c1cc(-c2ccccc2)sc1N,0.247,0.612
NCC(=O)Nc1ccc(Br)cc1,0.227,0.606
NNc1nc2sc3c(c2c(=O)n1Cc1ccccc1)CCCC3,0.259,0.626
c1ccc(CN2C3=NCCCN3c3ccccc32)cc1,0.249,0.625

# 2 records drawn at random from those above:
SMILES,"plate-normalized OD600 growth (temperature: 15°C, 48 h)","plate-normalized OD600 growth (temperature: 37°C, 24 h)"
O=C(O)c1ccc(S(=O)(=O)N2CCOCC2)cc1,0.24,0.63
C#CCSc1nc2c(cc1C#N)CCCC2,0.237,0.61

# Next entries:

SMILES,"plate-normalized OD600 growth (temperature: 15°C, 48 h)","plate-normalized OD600 growth (temperature: 37°C, 24 h)"
CCN(CC)CCCOc1ccc(C)cc1,0.255,0.632
CCc1cc2c(=O)c(-c3nc4ccccc4s3)c(C)oc2cc1O,0.259,0.622
COc1cc(NC(=O)c2cccc(Br)c2)c(OC)cc1Cl,0.252,0.613
O=[N+]([O-])c1ccc(N2CCN(S(=O)(=O)c3ccc(Cl)cc3)CC2)cc1,0.267,0.658
CCS(=O)(=O)N1CCN(C(=O)c2ccc(OC)cc2)CC1,0.262,0.617
COc1ccc(C2=NN(CCc3ccccn3)C(=O)C2)cc1,0.234,0.615
O=C(Nc1ccccc1[N+](=O)[O-])c1cccc(S(=O)(=O)N2CCCCC2)c1,0.243,0.601
CCS(=O)(=O)C(=C1Nc2ccccc2N1)S(=O)(=O)CC,0.253,0.611
CN(C)C(=O)CCc1cc(C(C)(C)C)c(O)c(C(C)(C)C)c1,0.251,0.63
N#CC1=C(N)SC(N)=C(C#N)C1c1ccco1,0.258,0.634
COc1ccc(CNCc2ccc(OC)cc2)cc1,0.256,0.621
COc1ccc(N/C=C(/C#N)c2nc(-c3cccs3)cs2)cc1,0.23,0.616
COc1ccc(Br)cc1/C=C/C(=O)c1cccs1,0.239,0.626
N#Cc1ccc(-n2nnc3ccccc32)cc1C#N,0.25,0.613
COc1cccc(OC)c1C(=O)Nc1ccc(C)cc1C,0.232,0.626
CC(=O)C1=C(O)C(=O)N(CC(=O)O)C1c1ccccc1F (centres undefined),0.25,0.63
N#C/C(=C/C=C/c1ccccc1)c1nc(-c2ccc(F)cc2)cs1,0.266,0.627
Cc1ccc(NC(=O)C2=C(O)CCn3c2nc2ccccc23)cc1,0.244,0.59
COc1ccc(C2=CSC3=NCCN23)cc1F,0.25,0.598
Cc1sc(NC(=O)c2ccc3c(c2)OCO3)c(C#N)c1C,0.253,0.624
O=[N+]([O-])c1ccc(CN2CCN(C/C=C/c3ccccc3)CC2)o1,0.23,0.621
Cc1nc([N+](=O)[O-])cn1CC(=O)Nc1ccc(Cl)cc1,0.251,0.604

SMILES,"plate-normalized OD600 growth (temperature: 15°C, 48 h)","plate-normalized OD600 growth (temperature: 37°C, 24 h)"
CC(C1CC1)N1C(=O)C2C(C1=O)C1C=CC2C12CC2 (centres undefined),0.235,0.631
O=C1c2ccccc2C(=O)N1CCc1c[nH]c2ccc(O)cc12,0.248,0.62
O=C(O)c1ccc(NS(=O)(=O)c2cccc(C(=O)Nc3cccc([N+](=O)[O-])c3)c2)cc1,0.231,0.595
CN1C(=O)CC(N2CCN(C(=O)c3ccccc3)CC2)C1=O (centres undefined),0.255,0.626
Nn1cnc2scc(-c3ccc(Cl)cc3)c2c1=O,0.24,0.617
COc1cc(OC)cc(C(=O)Nc2cccc(C)c2C)c1,0.253,0.63
COc1ccc(NC(=O)c2ccc(C)cc2)c(OC)c1,0.24,0.633
O=C(Nc1ccccc1)c1cccc(S(=O)(=O)NCc2ccccc2)c1,0.246,0.616
O=C(Nc1ccc(Br)cc1)c1cccnc1,0.244,0.633
CC(C)(C)C(=O)ON1C(=O)c2ccccc2C1=O,0.25,0.616
COc1ccc(NC2CC(=O)N(c3cccc(Br)c3)C2=O)cc1 (centres undefined),0.248,0.611
CN(C)c1ccc2c(c1)OC(N)=C(C#N)C2c1ccc(F)c(Br)c1 (centres undefined),0.244,0.6
COc1cccc(N2CCN(Cc3ccco3)CC2)c1,0.237,0.613
CSc1nc(N)c2c3c(sc2n1)CCC3,0.252,0.62
CCC1CCC(NCCN2CCOCC2)CC1 (centres undefined),0.255,0.62
N#Cc1c(-c2ccccc2)cc(-c2ccccc2)nc1SCC(=O)O,0.231,0.59
COc1cc(C)c(N)cc1C(C)C,0.226,0.6
N#Cc1nc(-c2ccccc2)cc(-c2ccccc2)n1,0.261,0.634
O=C(Nc1cccc2c1CCCC2)c1ccccc1F,0.243,0.609
